Library screen at single concentrations

The filed quantity is “Percent Effect” (%). The controls that fix the scale are not given in the record; negative values are as filed. This is an unselected part of the compounds tested. Two or more numbers in one place are separate tests of the same structure; such repeats can differ widely.

Mtb cholesterol medium: 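Growth of Mycobacterium tuberculosis over 4 days (cholesterol / DPPC medium with tyloxapol); the read-out is not stated. Compounds at 50 µM. Direction is inferred from retests: higher values go with more growth inhibition. About 69,000 compounds were tested under these conditions; 0.54% (about 370) showed 50% or more at least once.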
Mtb glucose medium: 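Growth of Mycobacterium tuberculosis over 3 days (7H9 medium with glucose and tyloxapol); the read-out is not stated. Concentration: 50 µM. The record gives no direction; compounds that gave an IC50 in retests scored well above the rest, so higher reads as more growth inhibition. About 69,000 compounds were tested under these conditions; 1.1% (about 760) showed 50% or more at least once.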

compound,Mtb cholesterol medium,Mtb glucose medium
O=C(c1ccsc1)N1CCc2c(CNc3ncccn3)n[nH]c2C1,13.22,25.51
[H][C@@]12CCN(C(=O)c3sccc3C)C[C@]1(c1nc(C)no1)CCO2,0.007488,0.7781
Cc1nc(NC(C)C)nc2c1CN(Cc1nccn1C)CC2,8.414,12.42 & 7.845
COc1ncccc1CNC(=O)NCCNC(=O)c1ccco1,2.571,13.46
O=C(CCN1CCCCO1)N1CC[C@H](O)[C@@H](O)C1,-10.54,-29.78 & 1.473
Fc1cccc(N2CCCC3(CN(Cc4ccco4)CCO3)C2)c1.O=C(O)C(F)(F)F.O=C(O)C(F)(F)F (centres undefined),-0.7184 & -15.5,-8.482
O=C(Nc1cnc2n1CCCC2)C1CCNCC1,-15.16,-13.9
Cc1ccc(N(C)S(=O)(=O)c2cc(C(=O)O)cs2)c(C)c1,-20.14,-3.22
Cc1c(Cl)cccc1NC(=O)Cn1cc(C(=O)O)ccc1=O,9.822 & -5.197,1.412
CCCn1[nH]cc/c1=N\C(=O)CN1CCCC1Cn1nc(C)nc1C (centres undefined),-6.872,-5.97
Cc1nn(C)c2cnn(Cc3ccc(C(=O)NC4CC4)cc3)c12,-2.708,-16.61
Cc1ccccc1CN1CCC(CNc2ncnc3c2CCNCC3)C1 (centres undefined),-7.05,3.604
O=C(O)C(F)(F)F.c1cnn(Cc2cn3c(n2)CN(Cc2nccs2)CC3)c1,9.37,16.02
Cc1cc(NC(=O)N2CCN(c3cccs3)CC2)ccc1C(N)=O,-13.13,-36.23 & 1.301
COc1ccc2c(c1)CCN2Cc1nc2c(cnn2C)c(=O)[nH]1,-6.121,-44.85 & -1.352
CC(=O)N1N=C(c2ccccc2)OC1C(=O)NCCc1cccc(F)c1 (centres undefined),-24.45,-19.66
CCNC(=O)c1ccc(N2CCCC(c3nccn3C(C)C)C2)nc1 (centres undefined),1.977,12.78
O=C(O)c1nc(SCc2ccccc2)ncc1Br,-12.79,-8.369
Cc1n[nH]c(C)c1CCNC(=O)Nc1ccc2c(c1)COC2,-3.014,-7.646 & -11.52
O=S1(=O)[C@@H](c2ccccc2)[C@H](CO)CN1c1ccccc1,-16.52,-22.16
[H][C@@]12CN(CC(=O)N(C)C)C[C@]1([H])OCCN2c1ncc(F)cn1,-1.242,-8.094
Cc1cc(C[S+]([O-])CC(=O)NCc2cccs2)no1 (centres undefined),-14.08,-8.911
Cc1cc(-c2nn(C)c(Cl)c2CN2CCOCC(O)C2)no1 (centres undefined),-7.24,18.71
COC(=O)CCNC(=O)c1cnc(Cc2ccc(F)cc2)s1,35.46 & 27.89,38.12
[H][C@]12CC[C@]([H])(CN(C(=O)Cc3cccs3)C1)N(Cc1ccccn1)C2=O,1.633,-0.9808 & 7.431
COCCNC(=O)NCC(C)c1ccccc1OC (centres undefined),23.08,-0.2317 & 11.12
CCN(C)c1ncnc2c1CCN(C(=O)c1ccccn1)CC2.O=C(O)C(F)(F)F.O=C(O)C(F)(F)F,-7.907,-3.239 & 3.664
C=C(C)CN1CCN(Cc2cnc(-c3ccc(OC)cc3)nc2)CC1.O=C(O)CC(O)(CC(=O)O)C(=O)O,19.69,3.885
Cc1oncc1C(=O)N1CCC2(CC1)CC(c1ccccc1)C(=O)N2C (centres undefined),1.046,-4.179
CC(C)S(=O)(=O)NCC1CCCN(C(=O)c2ccc(Cl)cc2)C1 (centres undefined),0.6886 & -8.405,-49.14
O=C(C1CC(=O)N(c2n[nH]c3cc(Br)ccc23)C1)N1CCOCC1 (centres undefined),2.317,11.07
Cc1csc(CNc2cnc3c(c2)c(C)nn3C)n1,3.983,-0.4337 & 3.036
O=S(=O)(c1ccc2c(c1)CCC2)N1CCCC(Cn2cncn2)C1 (centres undefined),5.888,25.51
COc1ccc(Nc2nc(N)c(C(C)=O)s2)cc1OC,4.778,26.9
CC(=O)N1CCCN(C(=O)CN(C)c2ccc(Cl)cn2)CC1,22.34,-10.67 & -0.6926
OC(COCc1ccccc1)CSc1nnc(C2CC2)n1C1CC1 (centres undefined),1.318,-71.19
Cc1nc(C2CCCNC2)cc(N(Cc2nccn2C)C2CC2)n1 (centres undefined),-11.75,-58.35
COc1cc2c(cc1OC)CN(C(=O)NC(C)c1nncn1C)CC2 (centres undefined),-17.69,-9.71 & -4.637
O=c1[nH][nH]cc1-c1ccnc(NCCN2CCCC2)n1,-82.56,-85.43
O=C(O)C(F)(F)F.O=C(O)C(F)(F)F.[H][C@@]12CCN(Cc3ccncc3)C[C@]1(C(=O)N1CCOCC1)CCO2,-14.51,-10.69
N#CCSCCCN1CCN(C(=O)c2ccc(Cl)cc2)CC1,-8.152,-50.73
CCN1CCNC(=O)C12CCN(C(=O)Cc1ccccn1)CC2,-3.685,-1.981
COCCN1CCN(CCS(=O)(=O)C(F)(F)F)CC1C (centres undefined),-0.9735,-14.29
Cc1cc(NC(=O)CN2CCc3cncnc3C2)no1,-5.956,-31.02
CCc1n[nH]c(C2CN(C(=O)c3cc4c(s3)CCC4)CCO2)n1 (centres undefined),-11.23,-25.15
CCN1N=C(C(=O)N2CCCC(c3noc(C)n3)C2)CCC1=O (centres undefined),-3.45,-27.58 & -3.35

Repeated from the top, 2 entries:

compound	Mtb cholesterol medium	Mtb glucose medium
O=C(c1ccsc1)N1CCc2c(CNc3ncccn3)n[nH]c2C1	13.22	25.51
[H][C@@]12CCN(C(=O)c3sccc3C)C[C@]1(c1nc(C)no1)CCO2	0.007488	0.7781

The values are deposited in ChEMBL (CHEMBL3988442, “University of Dundee, Small-Polar-MMV Screening Library” (2021)).